Measured values taken from paper PMC9529144.
No constants are given. Whether binding was seen depends on the method and setting. Binding seen in cells or lysates may run through a third protein. Some entries that bind do so weakly or less than the wild type. Sequences can lack the tags named with a protein. One block for each binder: values may come before it.

How the values were obtained:
[1] = target: T1, DEK isoform-2 (short isoform of DEK lacking residues 49-82), Flag- or Myc-tagged (human) (UniProt P35659); test: co-IP; 293T cells co-transfected with alternatively tagged isoforms (Flag and Myc); Universal Magnetic Co-IP Kit (Active Motif), 2 μg anti-Flag M2 antibody; anti-Flag and anti-Myc antibodies used
T1 sequence: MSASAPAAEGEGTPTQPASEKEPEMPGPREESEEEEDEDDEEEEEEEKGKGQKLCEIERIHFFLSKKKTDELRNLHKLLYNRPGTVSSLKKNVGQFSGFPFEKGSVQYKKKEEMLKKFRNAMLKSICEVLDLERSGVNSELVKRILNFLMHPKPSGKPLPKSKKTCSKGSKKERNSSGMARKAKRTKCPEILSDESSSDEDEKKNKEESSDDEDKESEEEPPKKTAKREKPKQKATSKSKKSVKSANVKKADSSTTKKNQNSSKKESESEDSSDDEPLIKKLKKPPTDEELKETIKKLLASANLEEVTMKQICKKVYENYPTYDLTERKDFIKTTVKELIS

[2] = target: T2, DEK isoform-1 (full-length DEK), Flag- or Myc-tagged (human), P35659; test: as above; conditions: remark: other sources report otherwise
T2 chain: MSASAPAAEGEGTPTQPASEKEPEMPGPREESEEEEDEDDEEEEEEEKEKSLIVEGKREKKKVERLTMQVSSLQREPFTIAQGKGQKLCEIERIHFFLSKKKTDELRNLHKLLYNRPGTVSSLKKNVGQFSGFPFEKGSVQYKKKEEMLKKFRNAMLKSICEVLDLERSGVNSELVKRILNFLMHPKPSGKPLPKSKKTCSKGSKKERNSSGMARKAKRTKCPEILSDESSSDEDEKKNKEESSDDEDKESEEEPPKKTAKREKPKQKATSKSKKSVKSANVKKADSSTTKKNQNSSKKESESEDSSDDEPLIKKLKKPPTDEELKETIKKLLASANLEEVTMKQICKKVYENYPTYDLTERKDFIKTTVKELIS

binding [1]: no binding
B1: DEK isoform-2 (short isoform of DEK lacking residues 49-82), Flag- or Myc-tagged (protein, UniProt P35659-2 1-341)
chain: T1 sequence

binding [2]: binds
B2: DEK isoform-1 (full-length DEK), Flag- or Myc-tagged, P35659-1 1-375 (protein)
chain: T2 chain

binding [1]: binds weakly
B3: DEK isoform-1 (full-length DEK), Flag- or Myc-tagged (protein, UniProt P35659-1 1-375)
chain: T2 chain
